This note sets out measurements from doi:10.1101/2022.03.07.483362.

The assay has as its target AtRsmD-GFP fusion protein (p35S:AtRsmD-GFP) in Arabidopsis seedlings (Arabidopsis thaliana). Briefly: affinity purification with mass spectrometry.

Results are given in words; binding and its absence hold for the method and conditions named. In cells and extracts the contact can be indirect. A yes stands for co-enrichment or nearness to the bait. Other partners may have been found.

B1: RPS13 (nuclear-encoded), endogenous (protein, UniProt P42732 48-169)
chain: ARVGGVEIPANKRIEYSLQYIHGIGRTRARQILVDLQMENKITKDMAEEELIILRDEVSKYMIEGDLRRFNALAIKRLKEIQCYRGVRHIQGLPCRGQRTKNNCRTLKGKKIAIAGKKKVSK
In the case of B1, the binding result is listed as “binds”.

B2: 30S ribosomal protein S20 (RPS20), endogenous (protein, UniProt Q9ASV6 80-202)
chain: AAAPTKKADSAAKRARQAEKRRVYNKSKKSEARTRMKKVLEALEGLKKKTDAQADEIVTVEKLIGEAYSAIDKAVKVKALHKNTGARRKSRLARRKKAVEIHHGWYVPDAAAAAPSEAVPMAA
Consider B2, for which the binding entry was “binds”.
